The list shows only some results of the screen, not a fair sample: it gathers tests that were run many times, whatever their T/C, doses with no T/C, and many T/C values between a quarter and a half above the control. Further doses and runs are listed elsewhere. T/C: endpoint of the treated group in % of that of the vehicle group. Some doses have a count of surviving animals in place of a T/C: the source holds a T/C of zero for them, seemingly a mark for toxic or unscored doses. Some doses without a T/C left all or most animals alive at the check, yet need not have been tolerated: the source hardly ever lists a survival T/C far under the control, and the zero likely stands for such cases as well. Counts of survivors are from the toxicity check (mostly the fifth day) where no day follows; animals may have died later. Schedule codes are those of the source, read here as Q, the interval in days (D) or hours (H), X, the number of doses. Some entries hold several experiments; the results are listed from low to high. Where survival is the endpoint, the PubChem record calls one and a half times the control and up active, and a quarter to a half above the control has no call in these data; cut-offs in other NCI protocols can differ. Some T/C values are followed by the survivors on the day toxicity was checked, most often the fifth; where none is given, no animal had died by that day. Signs of the kind (2×) count equal records among those shown.
Tested on: CD2F1 mice, L1210 leukemia ip, survival T/C
Assay: NCI In Vivo Anticancer Drug Screen. Data for tumor model L1210 Leukemia (intraperitoneal) in CD2F1 (CDF1) mice
Settings: higher T/C = longer survival
Outline: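 Mice carrying a transplanted tumor received test compound or vehicle alone. The value is the measurement in the treated group divided by that in the vehicle-treated control group.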

[1] = T/C endpoint: mean survival time, dose: 200.0 mg/kg/injection, schedule: Q04DX003 (ip), vehicle: saline
[2] = T/C endpoint: mean survival time, dose: 400.0 mg/kg/injection, schedule: Q04DX003 (ip), vehicle: saline
[3] = T/C endpoint: mean survival time, dose: 400.0 mg/kg/injection, schedule: Q01DX001 (ip), vehicle: saline
[4] = T/C endpoint: mean survival time, dose: 400.0 mg/kg/injection, schedule: Q04DX003 (ip), vehicle: saline with Tween-80
[5] = T/C endpoint: mean survival time, dose: 100.0 mg/kg/injection, schedule: Q01DX009 (ip), vehicle: saline with Tween-80
[6] = T/C endpoint: mean survival time, dose: 200.0 mg/kg/injection, schedule: Q01DX009 (ip), vehicle: saline with Tween-80
[7] = T/C endpoint: mean survival time, dose: 25.0 mg/kg/injection, schedule: Q01DX009 (ip), vehicle: saline with Tween-80
[8] = T/C endpoint: mean survival time, dose: 400.0 mg/kg/injection, schedule: Q04DX002 (ip), vehicle: saline

With `Nc1nc(Cl)[nH]c(=O)n1` the survivor count (T/C endpoint: mean survival time, dose: 100.0 mg/kg/injection, schedule: Q01DX001 (ip), vehicle: Klucel (hydroxypropylcellulose) (HPC)) was 3 of 6, the survivor count (T/C endpoint: mean survival time, dose: 200.0 mg/kg/injection, schedule: Q01DX001 (ip), vehicle: Klucel (hydroxypropylcellulose) (HPC)) was 1 of 6 and the survivor count (T/C endpoint: mean survival time, dose: 400.0 mg/kg/injection, schedule: Q01DX001 (ip), vehicle: Klucel (hydroxypropylcellulose) (HPC)) was 0 of 6.
For `COC(C)(C)O/N=C(\C[n+]1ccccc1)c1ccccc1`, the survivor count (T/C endpoint: mean survival time, dose: 100.0 mg/kg/injection, schedule: Q01DX009 (ip), vehicle: water) was 0 of 6 and the survivor count (T/C endpoint: mean survival time, dose: 200.0 mg/kg/injection, schedule: Q01DX009 (ip), vehicle: water) was 0 of 6.
`COc1cccc(C(=O)NC[n+]2ccccc2)c1` was tested, and the survivor count [1] was 0 of 6 and the survivor count [2] was 0 of 6.
For `CC(C)N1CC(COc2cccc3ccccc23)OP1(=O)N(CCCl)CCCl` (stereo not given), the T/C (T/C endpoint: mean survival time, dose: 500.0 mg/kg/injection, schedule: Q01DX001 (ip), vehicle: distilled water + Tween-80) was 130 % of control [5 of 6 alive].
`CN(C)C(=O)c1cccc(COc2ccc([N+](=O)[O-])cc2Cl)c1` was tested, and the survivor count (T/C endpoint: mean survival time, dose: 400.0 mg/kg/injection, schedule: Q01DX009 (ip), vehicle: saline sonified) was 0 of 6.
`c1ccc(-c2nn[nH]n2)nc1` was tested, and the survivor count [3] was 3 of 3.
With `O=[N+]([O-])c1ccc(C(F)(F)F)cc1` the survivor count [4] was 6 of 6.
`O=C(Nc1ccc([N+](=O)[O-])cc1Cl)OCCc1ccccn1` was tested, and the T/C [5] was 87, 90 (2×), 95 % of control, the T/C [6] was 88 and 90 % of control [2 of 3 alive] and the survivor count [6] was 3 of 3 and 6 of 6. The survivor count (T/C endpoint: mean survival time, dose: 400.0 mg/kg/injection, schedule: Q01DX009 (ip), vehicle: saline with Tween-80) was 3 of 3 and 6 of 6.
With `CCN(CC)CCCNc1nccc2c(C)c3[nH]c4ccncc4c3cc12` the T/C (T/C endpoint: mean survival time, dose: 1.25 mg/kg/injection, schedule: Q01DX001 (ip), vehicle: water) was 129 % of control, the T/C (T/C endpoint: mean survival time, dose: 2.5 mg/kg/injection, schedule: Q01DX001 (ip), vehicle: water) was 126 % of control and the T/C (T/C endpoint: mean survival time, dose: 5.0 mg/kg/injection, schedule: Q01DX001 (ip), vehicle: water) was 135 % of control. The T/C (T/C endpoint: mean survival time, dose: 10.0 mg/kg/injection, schedule: Q01DX001 (ip), vehicle: water) was 128 % of control, the T/C (T/C endpoint: mean survival time, dose: 20.0 mg/kg/injection, schedule: Q01DX001 (ip), vehicle: water) was 142 % of control and the survivor count (T/C endpoint: mean survival time, dose: 40.0 mg/kg/injection, schedule: Q01DX001 (ip), vehicle: water) was 3 of 6. The T/C (T/C endpoint: median survival time, dose: 1.25 mg/kg/injection, schedule: Q01DX009 (ip), vehicle: acid diluted with saline) was 133 % of control, the T/C (T/C endpoint: median survival time, dose: 2.5 mg/kg/injection, schedule: Q01DX001 (ip), vehicle: other) was 129 % of control and the T/C (T/C endpoint: median survival time, dose: 2.5 mg/kg/injection, schedule: Q01DX009 (ip), vehicle: acid diluted with saline) was 125 % of control. For the same compound, the T/C (T/C endpoint: median survival time, dose: 5.0 mg/kg/injection, schedule: Q01DX009 (ip), vehicle: acid diluted with saline) was 136 % of control, the survivor count (T/C endpoint: median survival time, dose: 10.0 mg/kg/injection, schedule: Q01DX009 (ip), vehicle: acid diluted with saline) was 9 of 10 and the survivor count (T/C endpoint: median survival time, dose: 20.0 mg/kg/injection, schedule: Q01DX009 (ip), vehicle: acid diluted with saline) was 2 of 10. For the same compound, the survivor count (T/C endpoint: median survival time, dose: 40.0 mg/kg/injection, schedule: Q01DX001 (ip), vehicle: other) was 0 of 6 and the survivor count (T/C endpoint: median survival time, dose: 40.0 mg/kg/injection, schedule: Q01DX009 (ip), vehicle: acid diluted with saline) was 0 of 10.
In the case of `O=c1cc(-c2ccccc2)[nH]c2c1CCCC2`, the T/C (T/C endpoint: median survival time, dose: 200.0 mg/kg/injection, schedule: Q01DX009 (ip), vehicle: saline with Tween-80) is reported as 132 % of control and the T/C (T/C endpoint: median survival time, dose: 400.0 mg/kg/injection, schedule: Q01DX009 (ip), vehicle: saline with Tween-80) is reported as 136 % of control.
In the case of `C#CCNC1=C(C)C(=O)C2=C(C1=O)[C@H](COC(N)=O)[C@]1(OC)[C@@H]3N[C@@H]3CN21`, the T/C (T/C endpoint: mean survival time, dose: 6.0 mg/kg/injection, schedule: Q01DX001 (ip), vehicle: distilled water + Tween-80) is reported as 130 % of control, the T/C (T/C endpoint: mean survival time, dose: 12.0 mg/kg/injection, schedule: Q01DX001 (ip), vehicle: distilled water + Tween-80) is reported as 130 and 146 % of control and the T/C (T/C endpoint: mean survival time, dose: 24.0 mg/kg/injection, schedule: Q01DX001 (ip), vehicle: distilled water + Tween-80) is reported as 147 % of control. For the same compound, the T/C (T/C endpoint: median survival time, dose: 1.5 mg/kg/injection, schedule: Q01DX009 (ip), vehicle: distilled water + Tween-80) was 139 % of control, the T/C (T/C endpoint: median survival time, dose: 3.0 mg/kg/injection, schedule: Q01DX009 (ip), vehicle: distilled water + Tween-80) was 139 % of control and the T/C (T/C endpoint: median survival time, dose: 12.0 mg/kg/injection, schedule: Q01DX009 (ip), vehicle: distilled water + Tween-80) was 129 % of control. The survivor count (T/C endpoint: median survival time, dose: 24.0 mg/kg/injection, schedule: Q01DX009 (ip), vehicle: distilled water + Tween-80) was 6 of 6, the survivor count (T/C endpoint: median survival time, dose: 50.0 mg/kg/injection, schedule: Q01DX009 (ip), vehicle: distilled water + Tween-80) was 0 of 6 and the survivor count (T/C endpoint: median survival time, dose: 100.0 mg/kg/injection, schedule: Q01DX009 (ip), vehicle: distilled water + Tween-80) was 0 of 6.
In the case of `O=C1C=CC(=O)C1`, the survivor count (T/C endpoint: mean survival time, dose: 10.0 mg/kg/injection, schedule: Q04DX002 (ip), vehicle: saline with Tween-80) is reported as 3 of 3 and the survivor count (T/C endpoint: mean survival time, dose: 20.0 mg/kg/injection, schedule: Q04DX002 (ip), vehicle: saline with Tween-80) is reported as 1 of 3.
For `[C-]1=CC2C=CC1C1[C-]=CC21.[Cl][Pd][Cl]` (stereo not given), the survivor count [7] was 0 of 6, the survivor count (T/C endpoint: mean survival time, dose: 50.0 mg/kg/injection, schedule: Q01DX009 (ip), vehicle: saline with Tween-80) was 0 of 6 and the survivor count [5] was 0 of 6.
For `O=C(/C=C/c1cccnc1)/C=C/c1cccnc1`, the survivor count (T/C endpoint: mean survival time, dose: 50.0 mg/kg/injection, schedule: Q04DX003 (ip), vehicle: acetone) was 3 of 6, the survivor count (T/C endpoint: mean survival time, dose: 100.0 mg/kg/injection, schedule: Q04DX003 (ip), vehicle: saline with Tween-80) was 6 of 6 and the survivor count (T/C endpoint: mean survival time, dose: 200.0 mg/kg/injection, schedule: Q04DX003 (ip), vehicle: saline with Tween-80) was 0 of 6. The survivor count [4] was 0 of 6.
In the case of `CCOC(=O)/C=C\C(=O)O.[Mn]`, the survivor count [1] is reported as 2 of 6, the survivor count (T/C endpoint: mean survival time, dose: 300.0 mg/kg/injection, schedule: Q01DX001 (ip), vehicle: saline) is reported as 3 of 6 and the survivor count [3] is reported as 1 of 6. For the same compound, the survivor count [8] was 1 of 6 and the survivor count (T/C endpoint: mean survival time, dose: 500.0 mg/kg/injection, schedule: Q01DX001 (ip), vehicle: saline) was 0 of 6.
With `Nc1nc(N)c2cc(CCc3ccc(C(=O)NC(CCC(=O)O)C(=O)O)cc3)ccc2n1` (stereo not given) the T/C (T/C endpoint: mean survival time, dose: 0.08 mg/kg/injection, schedule: Q01DX009 (ip), vehicle: Klucel (hydroxypropylcellulose) (HPC)) was 133 % of control, the T/C (T/C endpoint: mean survival time, dose: 0.16 mg/kg/injection, schedule: Q01DX009 (ip), vehicle: Klucel (hydroxypropylcellulose) (HPC)) was 132 % of control and the survivor count (T/C endpoint: mean survival time, dose: 0.63 mg/kg/injection, schedule: Q01DX009 (ip), vehicle: Klucel (hydroxypropylcellulose) (HPC)) was 6 of 6. For the same compound, the survivor count (T/C endpoint: mean survival time, dose: 1.25 mg/kg/injection, schedule: Q01DX009 (ip), vehicle: Klucel (hydroxypropylcellulose) (HPC)) was 5 of 6.
`CC1(C)CC(=O)C=C(N2CCC(CCCC3CCN(C4=CC(=O)CC(C)(C)C4)CC3)CC2)C1` was tested, and the survivor count [6] was 3 of 6 and the survivor count (T/C endpoint: mean survival time, dose: 400.0 mg/kg/injection, schedule: Q01DX001 (ip), vehicle: saline with Tween-80) was 1 of 6.
`CN(C)C(=S)[S][Sn]([CH3])([CH3])[CH3]` was tested, and the survivor count (T/C endpoint: mean survival time, dose: 6.25 mg/kg/injection, schedule: Q01DX009 (ip), vehicle: saline with Tween-80) was 0 of 3, the survivor count (T/C endpoint: mean survival time, dose: 12.5 mg/kg/injection, schedule: Q01DX009 (ip), vehicle: saline with Tween-80) was 0 of 3 and the survivor count [7] was 0 of 3.
With `Clc1nnc(-c2ccccc2)c(-c2ccccc2)n1` the survivor count [1] was 6 of 6 and the survivor count [2] was 1 of 6.
`NC(CCl)=NCCc1ccsc1` was tested, and the survivor count (T/C endpoint: mean survival time, dose: 200.0 mg/kg/injection, schedule: Q04DX002 (ip), vehicle: saline) was 0 of 3 and the survivor count [8] was 0 of 3.
For `CC(=O)ON1C(=O)C=CC1=O`, the survivor count (T/C endpoint: mean survival time, dose: 100.0 mg/kg/injection, schedule: Q01DX009 (ip), vehicle: Klucel (hydroxypropylcellulose) (HPC)) was 5 of 6, the survivor count (T/C endpoint: mean survival time, dose: 200.0 mg/kg/injection, schedule: Q01DX009 (ip), vehicle: Klucel (hydroxypropylcellulose) (HPC)) was 2 of 6 and the survivor count (T/C endpoint: mean survival time, dose: 400.0 mg/kg/injection, schedule: Q01DX009 (ip), vehicle: Klucel (hydroxypropylcellulose) (HPC)) was 0 of 6.

From PubChem BioAssay AID256 (DTP/NCI, 2004)
